Test [1] concerns the target integrin β1 (human (endogenous in SK-N-SH)) (UniProt P05556). As to the kind of experiment: co-IP; endogenous proteins of SK-N-SH cells; cells incubated 1 h with rhNTN1 in serum-free DMEM (25 ng/ml for NEO1-FAK; 200 ng/ml in the methods, 100 ng/ml in the results, for NEO1-integrin β1; treatment not told for FAK-integrin β1); extracts in 20 mM Tris pH 7.4, 150 mM NaCl, 1% NP-40; anti-FAK, anti-NEO1 or anti-integrin β1 on Dynabeads protein A, 1 h; Western blot. Background: In western blotting, separated proteins are transferred to a membrane and probed.

Protein sequences, listed by entry. Tags and fused reporters are not part of them. Lines headed by an entry give the natural chain unless they say otherwise; changes in a name come on top.
UniProt P05556: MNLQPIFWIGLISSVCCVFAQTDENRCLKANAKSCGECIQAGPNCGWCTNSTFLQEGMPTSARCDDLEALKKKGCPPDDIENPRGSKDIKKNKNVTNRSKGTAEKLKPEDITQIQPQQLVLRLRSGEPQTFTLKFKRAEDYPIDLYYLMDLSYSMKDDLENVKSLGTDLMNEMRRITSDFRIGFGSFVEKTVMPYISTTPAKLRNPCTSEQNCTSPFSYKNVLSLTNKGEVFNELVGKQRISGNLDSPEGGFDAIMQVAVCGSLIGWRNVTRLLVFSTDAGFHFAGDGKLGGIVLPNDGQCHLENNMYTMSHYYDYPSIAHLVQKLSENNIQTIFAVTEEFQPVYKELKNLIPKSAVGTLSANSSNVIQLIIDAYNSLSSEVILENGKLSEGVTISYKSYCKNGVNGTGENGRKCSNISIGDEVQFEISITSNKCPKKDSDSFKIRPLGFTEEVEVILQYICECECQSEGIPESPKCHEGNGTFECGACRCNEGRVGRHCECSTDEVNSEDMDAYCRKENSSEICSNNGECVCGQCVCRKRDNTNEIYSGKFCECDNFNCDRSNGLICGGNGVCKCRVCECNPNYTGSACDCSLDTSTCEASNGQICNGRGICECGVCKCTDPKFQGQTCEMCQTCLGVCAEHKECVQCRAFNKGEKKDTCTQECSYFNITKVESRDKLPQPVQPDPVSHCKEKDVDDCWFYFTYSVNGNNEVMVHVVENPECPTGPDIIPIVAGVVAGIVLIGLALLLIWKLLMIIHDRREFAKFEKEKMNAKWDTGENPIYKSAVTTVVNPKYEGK
UniProt Q05397: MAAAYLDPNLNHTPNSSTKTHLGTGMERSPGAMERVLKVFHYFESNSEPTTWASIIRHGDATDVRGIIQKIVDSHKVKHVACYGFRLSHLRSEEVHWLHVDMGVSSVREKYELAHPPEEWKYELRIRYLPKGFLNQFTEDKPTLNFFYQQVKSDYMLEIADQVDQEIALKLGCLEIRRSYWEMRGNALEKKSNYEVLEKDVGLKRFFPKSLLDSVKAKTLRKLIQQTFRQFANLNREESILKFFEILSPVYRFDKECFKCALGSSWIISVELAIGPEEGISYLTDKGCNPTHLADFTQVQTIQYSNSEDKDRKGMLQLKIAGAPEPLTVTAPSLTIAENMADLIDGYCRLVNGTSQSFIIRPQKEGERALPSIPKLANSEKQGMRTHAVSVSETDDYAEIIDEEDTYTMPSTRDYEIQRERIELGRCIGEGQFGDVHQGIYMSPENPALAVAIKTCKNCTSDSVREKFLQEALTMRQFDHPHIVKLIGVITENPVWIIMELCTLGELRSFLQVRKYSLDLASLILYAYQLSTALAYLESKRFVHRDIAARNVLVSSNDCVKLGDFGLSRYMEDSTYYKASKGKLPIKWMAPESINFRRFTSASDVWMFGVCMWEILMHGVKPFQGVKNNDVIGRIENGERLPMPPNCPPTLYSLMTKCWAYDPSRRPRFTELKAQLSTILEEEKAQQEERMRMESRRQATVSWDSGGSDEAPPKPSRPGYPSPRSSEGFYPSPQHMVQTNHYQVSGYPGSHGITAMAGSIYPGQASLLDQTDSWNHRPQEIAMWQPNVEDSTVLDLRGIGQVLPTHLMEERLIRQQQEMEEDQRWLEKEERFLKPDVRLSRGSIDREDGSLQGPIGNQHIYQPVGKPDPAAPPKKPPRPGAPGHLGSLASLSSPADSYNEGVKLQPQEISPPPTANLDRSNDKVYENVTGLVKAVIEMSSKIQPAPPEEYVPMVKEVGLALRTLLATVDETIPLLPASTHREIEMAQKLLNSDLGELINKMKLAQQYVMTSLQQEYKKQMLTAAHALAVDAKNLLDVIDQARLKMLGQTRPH

The target of test [2] is T1, Neogenin-1 (human (endogenous in SK-N-SH)) (UniProt Q92859).
T1 sequence: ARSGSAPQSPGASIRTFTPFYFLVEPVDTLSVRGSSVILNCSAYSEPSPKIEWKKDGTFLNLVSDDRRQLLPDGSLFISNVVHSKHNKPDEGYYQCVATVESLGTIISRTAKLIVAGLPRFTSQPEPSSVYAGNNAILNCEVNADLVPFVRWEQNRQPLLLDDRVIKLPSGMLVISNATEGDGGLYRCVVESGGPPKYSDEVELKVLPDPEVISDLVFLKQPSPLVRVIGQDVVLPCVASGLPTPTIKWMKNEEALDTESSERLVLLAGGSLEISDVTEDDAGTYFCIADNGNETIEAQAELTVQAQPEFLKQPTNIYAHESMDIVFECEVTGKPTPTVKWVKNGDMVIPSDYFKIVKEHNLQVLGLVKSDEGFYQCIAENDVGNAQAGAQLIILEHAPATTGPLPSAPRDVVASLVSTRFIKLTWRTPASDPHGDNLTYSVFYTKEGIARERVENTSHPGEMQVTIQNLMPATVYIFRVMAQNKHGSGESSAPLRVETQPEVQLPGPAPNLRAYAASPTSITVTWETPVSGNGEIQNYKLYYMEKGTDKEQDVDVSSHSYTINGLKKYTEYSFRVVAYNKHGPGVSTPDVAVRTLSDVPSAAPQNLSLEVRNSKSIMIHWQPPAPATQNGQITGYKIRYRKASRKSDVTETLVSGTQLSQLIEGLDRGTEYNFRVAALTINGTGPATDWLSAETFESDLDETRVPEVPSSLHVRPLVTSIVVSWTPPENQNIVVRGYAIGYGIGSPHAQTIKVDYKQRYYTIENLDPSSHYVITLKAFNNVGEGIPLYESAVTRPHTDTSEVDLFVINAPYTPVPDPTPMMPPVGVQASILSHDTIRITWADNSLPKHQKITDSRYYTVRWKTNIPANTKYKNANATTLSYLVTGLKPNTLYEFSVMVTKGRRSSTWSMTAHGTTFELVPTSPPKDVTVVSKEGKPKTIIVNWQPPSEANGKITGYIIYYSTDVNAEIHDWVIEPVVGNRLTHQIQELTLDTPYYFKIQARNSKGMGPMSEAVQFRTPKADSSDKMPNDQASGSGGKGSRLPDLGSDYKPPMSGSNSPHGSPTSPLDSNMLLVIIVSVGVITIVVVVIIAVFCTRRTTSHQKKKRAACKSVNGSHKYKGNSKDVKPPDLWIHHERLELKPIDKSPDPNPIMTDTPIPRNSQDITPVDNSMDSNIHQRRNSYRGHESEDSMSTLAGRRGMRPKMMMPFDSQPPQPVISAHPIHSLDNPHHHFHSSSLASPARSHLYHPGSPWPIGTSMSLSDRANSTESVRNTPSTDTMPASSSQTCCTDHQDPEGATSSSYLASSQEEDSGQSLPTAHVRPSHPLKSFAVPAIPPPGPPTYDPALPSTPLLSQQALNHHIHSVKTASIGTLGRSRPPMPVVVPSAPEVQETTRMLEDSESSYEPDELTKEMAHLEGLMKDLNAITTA
The test is described as above.

These are yes or no findings as the source states them, for the method shown. In cells and extracts the contact can be indirect. Some binding calls cover weakened binding; strength is not graded here.

As to “Focal Adhesion Kinase (from UniProt Q05397 1-1052) (enzyme)”, the binding result in test [1] is “binds”. Consider “integrin β1 (from UniProt P05556 21-798) (receptor)”, for which, in test [2], the binding result was “binds”.

Source of the values: paper PMC7971226.
